B1: ALP1 (endogenous) (protein, UniProt Q94K49 1-396)
chain: MAPVKQKKKNKKKPLDKAKKLAKNKEKKRVNAVPLDPEAIDCDWWDTFWLRNSSPSVPSDEDYAFKHFFRASKTTFSYICSLVREDLISRPPSGLINIEGRLLSVEKQVAIALRRLASGDSQVSVGAAFGVGQSTVSQVTWRFIEALEERAKHHLRWPDSDRIEEIKSKFEEMYGLPNCCGAIDTTHIIMTLPAVQASDDWCDQEKNYSMFLQGVFDHEMRFLNMVTGWPGGMTVSKLLKFSGFFKLCENAQILDGNPKTLSQGAQIREYVVGGISYPLLPWLITPHDSDHPSDSMVAFNERHEKVRSVAATAFQQLKGSWRILSKVMWRPDRRKLPSIILVCCLLHNIIIDCGDYLQEDVPLSGHHDSGYADRYCKQTEPLGSELRGCLTEHLLR
B2: LHP1 (endogenous) (protein, UniProt Q946J8 1-445)
chain: MKGASGAVKKKPQVLNEAGEAETAVETVGESRKISGDGGFGSDDGGGGGGGGSGESILREIGDDRPTEDGDEEEEEDEDEDDGGDEEDEEGEGEGGQEERPKLDEGFYEIEAIRRKRVRKGKVQYLIKWRGWPETANTWEPLENLQSIADVIDAFEGSLKPGKPGRKRKRKYAGPHSQMKKKQRLTSTSHDATEKSDSSTSLNNSSLPDIPDPLDLSGSSLLNRDVEAKNAYVSNQVEANSGSVGMARQVRLIDNEKEYDPTLNELRGPVNNSNGAGCSQGGGIGSEGDNVRPNGLLKVYPKELDKNSRFIGAKRRKSGSVKRFKQDGSTSNNHTAPTDQNLTPDLTTLDSFGRIARMGNEYPGVMENCNLSQKTKIEELDITKILKPMSFTASVSDNVQEVLVTFLALRSDGKEALVDNRFLKAHNPHLLIEFYEQHLKYNRTP
B3: EMF1 (endogenous) (protein, UniProt Q9LYD9 1-1096)
chain: MGSSIKINSISIDLAGAANEIDMVKCDHFSMRGFVAETRERDLRKCWPFSEESVSLVDQQSYTLPTLSVPKFRWWHCMSCIKDIDAHGPKDCGLHSNSKAIGNSSVIESKSKFNSLTIIDHEKEKKTDIADNAIEEKVGVNCENDDQTATTFLKKARGRPMGASNVRSKSRKLVSPEQVGNNRSKEKLNKPSMDISSWKEKQNVDQAVTTFGSSEIAGVVEDTPPKATKNHKGIRGLMECDNGSSESINLAMSGLQRRKSRKVRLLSELLGNTKTSGGSNIRKEESALKKESVRGRKRKLLPENNYVSRILSTMGATSENASKSCDSDQGNSESTDSGFDRTPFKGKQRNRRFQVVDEFVPSLPCETSQEGIKEHDADPSKRSTPAHSLFTGNDSVPCPPGTQRTERKLSLPKKKTKKPVIDNGKSTVISFSNGIDGSQVNSHTGPSMNTVSQTRDLLNGKRVGGLFDNRLASDGYFRKYLSQVNDKPITSLHLQDNDYVRSRDAEPNCLRDFSSSSKSSSGGWLRTGVDIVDFRNNNHNTNRSSFSNLKLRYPPSSTEVADLSRVLQKDASGADRKGKTVMVQEHHGAPRSQSHDRKETTTEEQNNDDIPMEIVELMAKNQYERCLPDKEEDVSNKQPSQETAHKSKNALLIDLNETYDNGISLEDNNTSRPPKPCSSNARREEHFPMGRQQNSHDFFPISQPYVPSPFGIFPPTQENRASSIRFSGHNCQWLGNLPTVGNQNPSPSSFRVLRACDTCQSVPNQYREASHPIWPSSMIPPQSQYKPVSLNINQSTNPGTLSQASNNENTWNLNFVAANGKQKCGPNPEFSFGCKHAAGVSSSSSRPIDNFSSESSIPALHLLSLLDPRLRSTTPADQHGNTKFTKRHFPPANQSKEFIELQTGDSSKSAYSTKQIPFDLYSKRFTQEPSRKSFPITPPIGTSSLSFQNASWSPHHQEKKTKRKDTFAPVYNTHEKPVFASSNDQAKFQLLGASNSMMLPLKFHMTDKEKKQKRKAESCNNNASAGPVKNSSGPIVCSVNRNPADFTIPEPGNVYMLTGEHLKVRKRTTFKKKPAVCKQDAMKQTKKPVCPPTQNA
B4: EMF2 (endogenous) (protein, UniProt Q8L6Y4 1-631)
chain: MPGIPLVSRETSSCSRSTEQMCHEDSRLRISEEEEIAAEESLAAYCKPVELYNIIQRRAIRNPLFLQRCLHYKIEAKHKRRIQMTVFLSGAIDAGVQTQKLFPLYILLARLVSPKPVAEYSAVYRFSRACILTGGLGVDGVSQAQANFLLPDMNRLALEAKSGSLAILFISFAGAQNSQFGIDSGKIHSGNIGGHCLWSKIPLQSLYASWQKSPNMDLGQRVDTVSLVEMQPCFIKLKSMSEEKCVSIQVPSNPLTSSSPQQVQVTISAEEVGSTEKSPYSSFSYNDISSSSLLQIIRLRTGNVVFNYRYYNNKLQKTEVTEDFSCPFCLVKCASFKGLRYHLPSTHDLLNFEFWVTEEFQAVNVSLKTETMISKVNEDDVDPKQQTFFFSSKKFRRRRQKSQVRSSRQGPHLGLGCEVLDKTDDAHSVRSEKSRIPPGKHYERIGGAESGQRVPPGTSPADVQSCGDPDYVQSIAGSTMLQFAKTRKISIERSDLRNRSLLQKRQFFHSHRAQPMALEQVLSDRDSEDEVDDDVADFEDRRMLDDFVDVTKDEKQMMHMWNSFVRKQRVLADGHIPWACEAFSRLHGPIMVRTPHLIWCWRVFMVKLWNHGLLDARTMNNCNTFLEQLQI
B5: FIE (endogenous) (protein, UniProt Q9LT47 1-369)
chain: MSKITLGNESIVGSLTPSNKKSYKVTNRIQEGKKPLYAVVFNFLDARFFDVFVTAGGNRITLYNCLGDGAISALQSYADEDKEESFYTVSWACGVNGNPYVAAGGVKGIIRVIDVNSETIHKSLVGHGDSVNEIRTQPLKPQLVITASKDESVRLWNVETGICILIFAGAGGHRYEVLSVDFHPSDIYRFASCGMDTTIKIWSMKEFWTYVEKSFTWTDDPSKFPTKFVQFPVFTASIHTNYVDCNRWFGDFILSKSVDNEILLWEPQLKENSPGEGASDVLLRYPVPMCDIWFIKFSCDLHLSSVAIGNQEGKVYVWDLKSCPPVLITKLSHNQSKSVIRQTAMSVDGSTILACCEDGTIWRWDVITK
B6: CLF (endogenous) (protein, UniProt P93831 1-902)
chain: MASEASPSSSATRSEPPKDSPAEERGPASKEVSEVIESLKKKLAADRCISIKKRIDENKKNLFAITQSFMRSSMERGGSCKDGSDLLVKRQRDSPGMKSGIDESNNNRYVEDGPASSGMVQGSSVPVKISLRPIKMPDIKRLSPYTTWVFLDRNQRMTEDQSVVGRRRIYYDQTGGEALICSDSEEEAIDDEEEKRDFLEPEDYIIRMTLEQLGLSDSVLAELASFLSRSTSEIKARHGVLMKEKEVSESGDNQAESSLLNKDMEGALDSFDNLFCRRCLVFDCRLHGCSQDLIFPAEKPAPWCPPVDENLTCGANCYKTLLKSGRFPGYGTIEGKTGTSSDGAGTKTTPTKFSSKLNGRKPKTFPSESASSNEKCALETSDSENGLQQDTNSDKVSSSPKVKGSGRRVGRKRNKNRVAERVPRKTQKRQKKTEASDSDSIASGSCSPSDAKHKDNEDATSSSQKHVKSGNSGKSRKNGTPAEVSNNSVKDDVPVCQSNEVASELDAPGSDESLRKEEFMGETVSRGRLATNKLWRPLEKSLFDKGVEIFGMNSCLIARNLLSGFKSCWEVFQYMTCSENKASFFGGDGLNPDGSSKFDINGNMVNNQVRRRSRFLRRRGKVRRLKYTWKSAAYHSIRKRITEKKDQPCRQFNPCNCKIACGKECPCLLNGTCCEKYCGCPKSCKNRFRGCHCAKSQCRSRQCPCFAADRECDPDVCRNCWVIGGDGSLGVPSQRGDNYECRNMKLLLKQQQRVLLGISDVSGWGAFLKNSVSKHEYLGEYTGELISHKEADKRGKIYDRENCSFLFNLNDQFVLDAYRKGDKLKFANHSPEPNCYAKVIMVAGDHRVGIFAKERILAGEELFYDYRYEPDRAPAWAKKPEAPGSKKDENVTPSVGRPKKLA
B7: SWN (endogenous) (protein, UniProt Q9ZSM8 1-856)
chain: MVTDDSNSSGRIKSHVDDDDDGEEEEDRLEGLENRLSELKRKIQGERVRSIKEKFEANRKKVDAHVSPFSSAASSRATAEDNGNSNMLSSRMRMPLCKLNGFSHGVGDRDYVPTKDVISASVKLPIAERIPPYTTWIFLDRNQRMAEDQSVVGRRQIYYEQHGGETLICSDSEEEPEPEEEKREFSEGEDSIIWLIGQEYGMGEEVQDALCQLLSVDASDILERYNELKLKDKQNTEEFSNSGFKLGISLEKGLGAALDSFDNLFCRRCLVFDCRLHGCSQPLISASEKQPYWSDYEGDRKPCSKHCYLQLKAVREVPETCSNFASKAEEKASEEECSKAVSSDVPHAAASGVSLQVEKTDIGIKNVDSSSGVEQEHGIRGKREVPILKDSNDLPNLSNKKQKTAASDTKMSFVNSVPSLDQALDSTKGDQGGTTDNKVNRDSEADAKEVGEPIPDNSVHDGGSSICQPHHGSGNGAIIIAEMSETSRPSTEWNPIEKDLYLKGVEIFGRNSCLIARNLLSGLKTCLDVSNYMRENEVSVFRRSSTPNLLLDDGRTDPGNDNDEVPPRTRLFRRKGKTRKLKYSTKSAGHPSVWKRIAGGKNQSCKQYTPCGCLSMCGKDCPCLTNETCCEKYCGCSKSCKNRFRGCHCAKSQCRSRQCPCFAAGRECDPDVCRNCWVSCGDGSLGEAPRRGEGQCGNMRLLLRQQQRILLGKSDVAGWGAFLKNSVSKNEYLGEYTGELISHHEADKRGKIYDRANSSFLFDLNDQYVLDAQRKGDKLKFANHSAKPNCYAKVMFVAGDHRVGIFANERIEASEELFYDYRYGPDQAPVWARKPEGSKKDDSAITHRRARKHQSH

Sequences of proteins named here, by UniProt entry; tags and fusion partners are left off. A change or cut given only in a name is not applied to a line headed by its entry.
UniProt F4KH55: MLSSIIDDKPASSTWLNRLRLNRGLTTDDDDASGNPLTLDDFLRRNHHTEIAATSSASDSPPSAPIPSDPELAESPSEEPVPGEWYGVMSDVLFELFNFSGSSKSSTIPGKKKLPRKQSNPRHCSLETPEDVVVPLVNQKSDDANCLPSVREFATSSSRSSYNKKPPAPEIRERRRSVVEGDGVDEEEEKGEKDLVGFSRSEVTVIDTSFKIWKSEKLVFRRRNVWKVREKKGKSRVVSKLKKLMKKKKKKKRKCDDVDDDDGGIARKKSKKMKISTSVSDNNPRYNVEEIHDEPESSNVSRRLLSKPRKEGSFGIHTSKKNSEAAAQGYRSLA
UniProt O22467: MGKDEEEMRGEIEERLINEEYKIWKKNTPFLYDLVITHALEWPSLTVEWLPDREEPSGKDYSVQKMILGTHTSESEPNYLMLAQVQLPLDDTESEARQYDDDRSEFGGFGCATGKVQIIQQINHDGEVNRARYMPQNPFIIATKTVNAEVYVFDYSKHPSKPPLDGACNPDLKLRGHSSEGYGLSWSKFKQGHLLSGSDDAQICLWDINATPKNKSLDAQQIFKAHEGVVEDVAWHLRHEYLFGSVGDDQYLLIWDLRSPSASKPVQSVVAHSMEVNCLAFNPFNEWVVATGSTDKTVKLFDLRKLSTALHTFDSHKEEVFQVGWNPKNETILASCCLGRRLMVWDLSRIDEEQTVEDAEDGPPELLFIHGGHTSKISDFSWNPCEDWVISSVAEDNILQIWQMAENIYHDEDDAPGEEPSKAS

Here are results for nine molecules from publication PMC7282668.

Results are given in words; binding and its absence hold for the method and conditions named. Binding seen in cells or lysates may run through a third protein. These calls come from enrichment with a bait or labelling near it, and not all partners need be listed. No binding means not detected with the bait. For some assays here: Where a sequence is shown, tags or fusion partners need not be part of it.

One assay has as its target GS^rhino-ALP2 (35S::GS^rhino-ALP2) (Arabidopsis thaliana). In words: affinity purification with mass spectrometry; two-step tandem affinity purification of GS^rhino-ALP2 from dark grown PSB-D suspension culture cells; non-transgenic cells as control; three replicates.
Consider B1, for which the binding entry is recorded as “binds”. Still for that read-out and setting: with B2 the entry was “no binding”; with B3, “no binding”.

The target in a further assay is GFP-ALP2 (35S::GFP-ALP2) (Arabidopsis thaliana) (UniProt F4KH55). The experiment in a line: affinity purification with mass spectrometry; IP of GFP-tagged bait from inflorescence extracts with GFP-trap agarose beads; 10mM Tris pH 7.5, 150 mM NaCl, 0.5% Igepal, 1% Triton; three independent experiments; 35S::GFP as control.
For the molecule “MSI1 (endogenous) (from UniProt O22467 1-424)”, the binding result is recorded as “binds”. Still for that read-out and setting: with B1 the entry was “binds”; with B2, “no binding”; with B4, “binds”.

Regarding B5, the binding result is recorded as “binds”.

As to B3, the binding entry is on record as “no binding”. Same read-out and setting: with B6 the entry was “binds”. The same measure, in the same setting: with B7 the entry was “binds”.

In a further assay the target is T1, ALP1-GFP (pALP1::ALP1-GFP) (Arabidopsis thaliana) (UniProt Q94K49).
T1 sequence: B1 chain
The assay is described as above.
Turning to ALP2 (endogenous), the binding entry is on record as “binds”. Turning to B2, the binding result is “no binding”. The same measure, in the same setting: with B3 the entry was “no binding”.
